Data reported in the supplement of paper PMC4862054.
Most values lie at the level of the controls, where differences are scatter.

Tests used:
Assay in all cases: normalised response (% of control), CellTox Green; higher = less cell death (100 = DMSO, 0 = benzethonium chloride kill control)
Conditions in all cases: incubation time: 72 h
BT-474 = system: BT-474
Description: (§1)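 DSRT, 72 h incubation, CellTox Green / CellTiter-Glo readout. Signal is normalised to DMSO and benzethonium chloride controls. Value is the normalised response at the lowest tested concentration.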

BT-549 = system: BT-549
Description: as §1

CAL-120 = system: CAL-120
Description: as §1

CAL-148 = system: CAL-148
Description: as §1

CAL-51 = system: CAL-51
Description: as §1

CAL-85-1 = system: CAL-85-1
Description: as §1

DU-4475 = system: DU-4475
Description: as §1

HCC1143 = system: HCC1143
Description: as §1

HCC1599 = system: HCC1599
Description: as §1

HCC1937 = system: HCC1937
Description: as §1

HDQ-P1 = system: HDQ-P1
Description: as §1

Hs578T = system: Hs578T
Description: as §1

MCF-10A = system: MCF-10A
Description: as §1

MDA-MB-231 = system: MDA-MB-231
Description: as §1

MDA-MB-436 = system: MDA-MB-436
Description: as §1

MDA-MB-453 = system: MDA-MB-453
Description: as §1

MDA-MB-468 = system: MDA-MB-468
Description: as §1

MFM-223 = system: MFM-223
Description: as §1

Structure (SMILES) | normalised response (BT-474) | normalised response (BT-549) | normalised response (CAL-120) | normalised response (CAL-148) | normalised response (CAL-51) | normalised response (CAL-85-1) | normalised response (DU-4475) | normalised response (HCC1143) | normalised response (HCC1599) | normalised response (HCC1937) | normalised response (HDQ-P1) | normalised response (Hs578T) | normalised response (MCF-10A) | normalised response (MDA-MB-231) | normalised response (MDA-MB-436) | normalised response (MDA-MB-453) | normalised response (MDA-MB-468) | normalised response (MFM-223)
C=CCc1cccc(/C=N/NC(=O)CN2CCN(Cc3ccccc3)CC2)c1O [PAC-1] (1 nM) | 98.9% | 104% | 100% | 104% | 125% | 94.5% | 107% | 117% | 107% | 97.7% | 106% | 110% | 92.9% | 103% | 80.7% | 62.7% | 101% | 104%
O=c1[nH]c(=O)n([C@H]2C[C@H](O)[C@@H](CO)O2)cc1F [Floxuridine] (1 nM) | 102% | 103% | 100% | 89.5% | 117% | 96.2% | 111% | 58.8% | 114% | 113% | 109% | 111% | 109% | 117% | 83.6% | 110% | 100% | 104%
CC1(C)NC(=O)N(c2ccc([N+](=O)[O-])c(C(F)(F)F)c2)C1=O [Nilutamide] (1 nM) | 102% | 90% | 103% | 106% | 115% | 98.4% | 103% | 121% | 103% | 64.1% | 88.6% | 74% | 89.8% | 86.2% | 76.8% | 110% | 103% | 104%
N#CC[C@H](C1CCCC1)n1cc(-c2ncnc3[nH]ccc23)cn1 [Ruxolitinib] (1 nM) | 96.5% | 98.3% | 93.4% | 94% | 114% | 103% | 95.5% | 90% | 87.5% | 82.7% | 91.1% | 65.5% | 94.2% | 93.9% | 89.2% | 93.4% | 60% | 95.3%
C[C@]12CC[C@H](O)CC1=CC[C@@H]1[C@@H]2CC[C@]2(C)C(c3cccnc3)=CC[C@@H]12 [Abiraterone] (0.5 nM) | 104% | 106% | 98.8% | 105% | 115% | 106% | 100% | 73.5% | 98.4% | 87.2% | 105% | 109% | 103% | 102% | 81.6% | 117% | 127% | 99.6%
Oc1nc(-c2ccc(C(F)(F)F)cc2)nc2c1CSCC2 [XAV-939] (1 nM) | 99.1% | 97.8% | 104% | 85.7% | 97.5% | 110% | 100% | 97.7% | 93.9% | 93.5% | 97.5% | 73.5% | 104% | 101% | 86.5% | 101% | 113% | 100%
C[C@@]1(C(=O)Nc2ccc(F)nc2)CCCN1c1nc(Nc2cc(C3CC3)n[nH]2)c2cccn2n1 (1 nM) | 101% | 107% | 99.5% | – | 115% | 93% | 96.2% | 86% | 94.2% | 70.2% | 94.9% | 84.5% | 94.4% | 88% | 84.6% | 106% | 101% | 94.2%
C[C@@H]1CCN(C(=O)CC#N)C[C@@H]1N(C)c1ncnc2[nH]ccc12 [Tofacitinib] (0.5 nM) | 106% | 99.6% | 98.6% | 107% | 104% | 96.4% | 103% | 87.7% | 106% | 91.5% | 89.9% | 85.1% | 92.1% | 104% | 96.4% | 114% | 77.5% | 66.5%
